Test results as given in patent publication US20250161338A1, “Compounds for Anti-aging Intervention” (AGENCY FOR SCIENCE, TECHNOLOGY AND RESEARCH, priority 2022, published 2025).
Structures can show the parent of a compound that is named as a salt. At least one structure is not confirmed: it was looked up by name or label, or the drawing left a doubt.

Each compound was assayed on prototrophic yeast strain (CEN.PK113-7D) (assay: Propidium iodide fluorescence-based CLS method in yeast (incl. high-throughput screening)). Conditions: concentration tested 100 μM; Yes/No call of the screen.
Type: cell-based, Saccharomyces cerevisiae
Protocol: Yeast strain was recovered from frozen glycerol stock at 30° C. on YPD agar medium. Yeast was left to propagate in SD medium overnight at 30° C. with shaking at 220 revolutions per minute (rpm). Cells propagated overnight were diluted to a starting optical density at 600 nm (OD600) of approximately 0.2 in fresh SD medium to begin the chronological lifespan (CLS) experiments.
CLS experiments were performed in 96-well plates with 200 μL yeast culture. Cellular inoculums were transferred into 96-well plates containing serially double-diluted concentrations (0 to 10 nM) of rapamycin. Cellular inoculum was transferred into 96-well plates containing serially double-diluted concentrations (0 to 8 mM) of 2,5-anhydro-D-mannitol, D-fructose, D-mannitol, D-maltose, and D-sorbitol in SD medium. Cells were incubated at 30° C., and the growth was measured at different time points. […] Cell survival was quantified at various age time points by three different approaches: (i) PI fluorescence-based method, (ii) outgrowth in YPD liquid medium, and (iii) spotting assay (FIG. 1).
Yeast cells (40 μL) from different age time points were transferred into a second 96-well plate (different to the 96-well plate in which the CLS analysis as outlined above was performed). […] Positive and negative control samples were included for quantitative analysis. […] The fluorescence reading of the samples (excitation and emission wavelengths at 535 nm and 617 nm, respectively) and OD600 were measured with a microplate reader (BioTek, Winooski, Vermont, United States). The fluorescence intensity of each sample was normalized with OD600. The background fluorescence signal of the unstained negative sample was subtracted from the normalized fluorescence intensity of each sample. The obtained fluorescence intensity of the positive control (boiled dead cells) was considered 0% cell survival. […] Cell survival at different age time points of samples were calculated by normalizing the fluorescence intensity with positive control sample (boiled cells). […]

Compound	Yeast CLS increase
CO[C@H]1C[C@@H]2CC[C@@H](C)[C@@](O)(O2)C(=O)C(=O)N2CCCC[C@H]2C(=O)O[C@H]([C@H](C)C[C@@H]2CC[C@@H](O)[C@H](OC)C2)CC(=O)[C@H](C)/C=C(\C)[C@@H](O)[C@@H](OC)C(=O)[C@H](C)C[C@H](C)/C=C/C=C/C=C/1C [Rapamycin, reference compound]	Yes
CN(C)c1ccc(O)c2c1C[C@H]1C[C@H]3[C@H](N(C)C)C(O)=C(C(N)=O)C(=O)[C@@]3(O)C(O)=C1C2=O [Minocycline (hydrochloride), reference compound]	No
CC1=C(/C=C/C(C)=C/C=C/C(C)=C/C(=O)O)C(C)(C)CCC1 [Retinoic acid, reference compound]	No
